Source: PMC7819943, “Rice protein-binding microarrays: a tool to detect cis-acting elements near promoter regions in rice”
The list shows a part of the results.

Chains of the proteins cited; added tags and fusions are not shown.
UniProt Q0JBA9, entry or part of it: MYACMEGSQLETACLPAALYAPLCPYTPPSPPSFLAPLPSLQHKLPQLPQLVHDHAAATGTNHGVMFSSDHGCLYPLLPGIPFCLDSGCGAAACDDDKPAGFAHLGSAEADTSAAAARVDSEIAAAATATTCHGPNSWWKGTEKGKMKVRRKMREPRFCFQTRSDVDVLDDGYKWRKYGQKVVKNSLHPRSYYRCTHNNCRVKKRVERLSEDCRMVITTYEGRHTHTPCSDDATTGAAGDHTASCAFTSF

biological target: OsWRKY34 (Oryza sativa, UniProt Q0JBA9 1-250); assay: protein-binding microarray (RPBM); PBS, 2% BSA, 51.3 ng/ul salmon testes DNA, 50 uM zinc acetate, 200 nM TF, 25 C, 1 h; high values mean tight binding; settings: protein: recombinant; tags: N-terminal polyhistidine and DsRed monomer fusion (pET32a); label: CyDye5-dUTP incorporated in the synthesized complementary strand; 3' TTTTT single-stranded linker to array surface; dsDNA, one strand shown
How it was run: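 The binding signal is fluorescence intensity per array feature (arbitrary units). Readings came from an Axon 4000B scanner after a washed, 2% BSA-blocked, double-stranded custom Agilent array had been incubated for 1 h at 25 °C with 200 nM protein and 50 µM zinc acetate. The protein was a Ni–NTA-purified transcription factor fused N-terminally to polyhistidine and DsRed, expressed in E. coli BL21-CodonPlus.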

Row | Sequence | binding signal
1 | TCCCTTCTCTCTCTATGTTTCTCTTCCTCTCCACTTCGGTCGGAGTCACCTAGTGCAG | 8080 fluorescence intensity (a.u.)
2 | GGGCGGGTGATCGCTGGGCGGGTGGGTGAGCGATCACCCACGGAGTCACCTAGTGCAG | 14800 fluorescence intensity (a.u.)
3 | TTTTTCCCCTTTCTTTTTTCATTTATTTTTTCAAAATTGACGGAGTCACCTAGTGCAG | 8390 fluorescence intensity (a.u.)
4 | ACCATTGTTTCTTCTCCAACTCTCTCCCTGGCGGCTGCCTCGGAGTCACCTAGTGCAG | 8220 fluorescence intensity (a.u.)
5 | TTCTTCTTCTTCTTCCAGTGCTCGGCTCTCTCTTTTACTCCGGAGTCACCTAGTGCAG | 8530 fluorescence intensity (a.u.)
6 | GACCAGGCTGTTTACCTTCGGTGCACACGATAGCGCTTGGCGGAGTCACCTAGTGCAG | 8070 fluorescence intensity (a.u.)
7 | CGCATTTTTCTAACCGTTGAACGATATGTTTTTTAAATATCGGAGTCACCTAGTGCAG | 8550 fluorescence intensity (a.u.)
8 | TCCTAGCATGTGTTTAGATTGGCCCAAAGTTTAGAATTTGCGGAGTCACCTAGTGCAG | 8830 fluorescence intensity (a.u.)
9 | CGCCCACACACACCCACACACGTCCCTCCAGATCTCGCACCGGAGTCACCTAGTGCAG | 8200 fluorescence intensity (a.u.)
10 | GCAAACCGCGCGGTTTGGCGCGGTTACCGCGCGGTTTGACCGGAGTCACCTAGTGCAG | 8060 fluorescence intensity (a.u.)
11 | CAAACATACACTCAGCCTTAATCCTTGCATTACTTCTCTACGGAGTCACCTAGTGCAG | 11900 fluorescence intensity (a.u.)
12 | ACCGCCTCCGCTCACCGGCATGCGCGCGCCGGCCTACGTGCGGAGTCACCTAGTGCAG | 8660 fluorescence intensity (a.u.)
13 | TTTGCAGTTTTTTACACTTGCTGGGAGCCCTGAGAATAGCCGGAGTCACCTAGTGCAG | 8230 fluorescence intensity (a.u.)
14 | CCTCGGCCTATAGTGTTGGGTTTGGGTGTTGGTTTTTCCCCGGAGTCACCTAGTGCAG | 15600 fluorescence intensity (a.u.)
15 | CTCCCCATTCTTCTCCTGTCTCTCTCGCCGCCTCCAATTCCGGAGTCACCTAGTGCAG | 11200 fluorescence intensity (a.u.)
16 | TCGCGTTACTGCTGTTCGTGCTGGTGGTGGCGGCGGCGGCCGGAGTCACCTAGTGCAG | 8650 fluorescence intensity (a.u.)
17 | GGGAGGGAGGGGCTCGCTGTCTCATCACTCTGTAACCGATCGGAGTCACCTAGTGCAG | 12300 fluorescence intensity (a.u.)
18 | CTCTCTCTCTCTCTCTCTCTTTCCTTTCTTTCCCTGCTAACGGAGTCACCTAGTGCAG | 8500 fluorescence intensity (a.u.)
19 | TTCTTCCTCCGTCAGTTCATCATCTCTCTGTGTGTGTTTTCGGAGTCACCTAGTGCAG | 11400 fluorescence intensity (a.u.)
20 | AATCTATCCCAGCCTAAATCTCACTGTTTCATGCACAACTCGGAGTCACCTAGTGCAG | 8350 fluorescence intensity (a.u.)
21 | GATTATCACATTTTATATTGTATATCCTGCTTCTTTTTTTCGGAGTCACCTAGTGCAG | 14000 fluorescence intensity (a.u.)

Reformatted: results already given
Row,Sequence,binding signal
13,TTTGCAGTTTTTTACACTTGCTGGGAGCCCTGAGAATAGCCGGAGTCACCTAGTGCAG,8230 fluorescence intensity (a.u.)
14,CCTCGGCCTATAGTGTTGGGTTTGGGTGTTGGTTTTTCCCCGGAGTCACCTAGTGCAG,15600 fluorescence intensity (a.u.)
15,CTCCCCATTCTTCTCCTGTCTCTCTCGCCGCCTCCAATTCCGGAGTCACCTAGTGCAG,11200 fluorescence intensity (a.u.)
16,TCGCGTTACTGCTGTTCGTGCTGGTGGTGGCGGCGGCGGCCGGAGTCACCTAGTGCAG,8650 fluorescence intensity (a.u.)
17,GGGAGGGAGGGGCTCGCTGTCTCATCACTCTGTAACCGATCGGAGTCACCTAGTGCAG,12300 fluorescence intensity (a.u.)
18,CTCTCTCTCTCTCTCTCTCTTTCCTTTCTTTCCCTGCTAACGGAGTCACCTAGTGCAG,8500 fluorescence intensity (a.u.)
19,TTCTTCCTCCGTCAGTTCATCATCTCTCTGTGTGTGTTTTCGGAGTCACCTAGTGCAG,11400 fluorescence intensity (a.u.)
20,AATCTATCCCAGCCTAAATCTCACTGTTTCATGCACAACTCGGAGTCACCTAGTGCAG,8350 fluorescence intensity (a.u.)

Remaining list, next part.

Row | Sequence | binding signal
22 | ACCTTTCGTCTATGATATCATATCTGGTCTCACTTTAGCACGGAGTCACCTAGTGCAG | 9870 fluorescence intensity (a.u.)
23 | CTCTCTCTCCGTTTTTCTTCTCTTCCTACTAAACCCCTCACGGAGTCACCTAGTGCAG | 9520 fluorescence intensity (a.u.)
24 | ATCGTTAAGCCTCAGTTTTTTTTTTTTTGGCACGAAGCTCCGGAGTCACCTAGTGCAG | 8330 fluorescence intensity (a.u.)
25 | TGGGCTCTCGCTTGCTCTTGTGTTCTTCCTTTTCCCTACGCGGAGTCACCTAGTGCAG | 13200 fluorescence intensity (a.u.)
26 | AAATTTAAAGTAATTTGACTTTGAAAGTCAAAACTTGTAACGGAGTCACCTAGTGCAG | 8600 fluorescence intensity (a.u.)
27 | CTCACCGCGCCGCTCACCTCCTCAAGACCACCACCCACCACGGAGTCACCTAGTGCAG | 9730 fluorescence intensity (a.u.)
28 | TTTTCTGGTTTATGGGGTAATTCGGATGACCGCGATAGTTCGGAGTCACCTAGTGCAG | 8030 fluorescence intensity (a.u.)
29 | ATTCCCATTGTCATGCTGCCACTAATCTGATTGTGTCACTCGGAGTCACCTAGTGCAG | 10600 fluorescence intensity (a.u.)
30 | CCCTCCTTCTCACTTTTCTTCCTCTCGGGCGCCTCTCCTCCGGAGTCACCTAGTGCAG | 10700 fluorescence intensity (a.u.)
31 | CACAGCCACCAGTACTGCCTATATATACACGCTCTCTCCACGGAGTCACCTAGTGCAG | 8560 fluorescence intensity (a.u.)
32 | ACATTTCTTTTCTCATTTAATTTTATCTACTTTTTTAATCCGGAGTCACCTAGTGCAG | 8050 fluorescence intensity (a.u.)
33 | CCGATTTTTCACCTTTGTCCCATTCCCACACCGCTCCGTGCGGAGTCACCTAGTGCAG | 10400 fluorescence intensity (a.u.)
34 | AAACCGGTCACTTTAGGTCCTTCGGTAGTTTTGACCCCGGCGGAGTCACCTAGTGCAG | 8580 fluorescence intensity (a.u.)
35 | ATTAATCCATCGTCAATCGCGTGGGAACCAGCAAGCTTTCCGGAGTCACCTAGTGCAG | 8080 fluorescence intensity (a.u.)
36 | ATGCTGCTACTACTACTGCTCTCTCACTCTCGTGCATGCACGGAGTCACCTAGTGCAG | 12600 fluorescence intensity (a.u.)
37 | ATTCCACGCGCATTCTCGGCCGATTAGCCCCGCCATGTGGCGGAGTCACCTAGTGCAG | 8320 fluorescence intensity (a.u.)
38 | GATAGTTTCTCGCTACTCGCTCCCGCCAAGCTAAGTTAGCCGGAGTCACCTAGTGCAG | 8220 fluorescence intensity (a.u.)
39 | CCTTGGCCCCGACGAGCAGCACCTCCAGCGTCCCGTGCACCGGAGTCACCTAGTGCAG | 8340 fluorescence intensity (a.u.)
40 | GATACTTATGCGGGGTTCCCAACCAGCACCGATGTCGATTCGGAGTCACCTAGTGCAG | 9420 fluorescence intensity (a.u.)
41 | CATCTCGCCCTCGCGCGGAGACTGGTGTCCCTGTTTTGCTCGGAGTCACCTAGTGCAG | 8370 fluorescence intensity (a.u.)
42 | CTTTCCATCTCATCCTCACGTATTCCCCAGAGTGCTAAATCGGAGTCACCTAGTGCAG | 9280 fluorescence intensity (a.u.)
